From ChEMBL document CHEMBL3988442, “University of Dundee, Small-Polar-MMV Screening Library” (2021).

Each number is a percent effect as filed. The record does not define 0% and 100%; most values in the screen are far below 50% and negative numbers occur (in some assays of this library far below -100). Compounds were drawn at random from those tested, without regard to their results. Two or more numbers in one place are separate tests of the same structure; such repeats can differ widely.

Mtb cholesterol medium: 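Whole-cell growth test on Mycobacterium tuberculosis, read after 4 days in a medium based on cholesterol and the lipid DPPC; the read-out is not stated. Compounds at 50 µM. Higher reads as more growth inhibition (inferred: compounds with an IC50 in retests scored well above the rest). Of about 69,000 compounds tested this way, about 370 (0.54%) reached 50% or more in at least one test.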
Mtb glucose medium: 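Phenotypic screen: M. tuberculosis growth, glucose 7H9 medium, 3 days; the read-out is not stated. Tested at 50 µM. The record gives no direction; compounds that gave an IC50 in retests scored well above the rest, so higher reads as more growth inhibition. Of about 69,000 compounds tested this way, about 760 (1.1%) reached 50% or more in at least one test.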

{"structure": "CCOC(=O)CN1CC(c2nc(-c3ccsc3)no2)C1.O=C(O)C(=O)O", "Mtb cholesterol medium": 0.8921, "Mtb glucose medium": -6.378}
{"structure": "CCn1c(C)nnc1CN(C)C1CCN(Cc2nnc(C3CC3)o2)C1", "stereo": "stereo not drawn", "Mtb cholesterol medium": -15.6, "Mtb glucose medium": "-12.64 and 0.1359"}
{"structure": "Cc1cnc(C(=O)N2Cc3ccccc3OC3(CCOCC3)C2)cn1", "Mtb cholesterol medium": 17.82, "Mtb glucose medium": 25.45}
{"structure": "CN(Cc1cnn(C)c1)C(=O)c1ccnc(OC2CCC2)c1", "Mtb cholesterol medium": -7.856, "Mtb glucose medium": "24.11 and -1.635"}
{"structure": "Cl.Cl.O=C1NC2(CCNCC2)CC1c1ccncc1", "stereo": "stereo not drawn", "Mtb cholesterol medium": "-33.76 and -15.13", "Mtb glucose medium": -32.06}
{"structure": "Cn1c(CN2CCOCC2)nnc1C1CCCN(C(=O)CCC2CC2)C1", "stereo": "stereo not drawn", "Mtb cholesterol medium": -23.11, "Mtb glucose medium": -14.05}
{"structure": "O=C(CCn1c(=O)oc2ccccc21)NCC(O)c1ccccc1", "stereo": "stereo not drawn", "Mtb cholesterol medium": -23.95, "Mtb glucose medium": -2.78}
{"structure": "CCc1cnc(C)nc1NCCNc1nc(C)cc(=O)[nH]1", "Mtb cholesterol medium": "-1.972 and -6.181", "Mtb glucose medium": -10.45}
{"structure": "O=C(O)C(F)(F)F.O=C(O)C(F)(F)F.[H][C@]12C[C@@H](C(=O)N(C)Cc3ccccn3)CO[C@@]1([H])CCN(CC1CC1)C2", "Mtb cholesterol medium": 5.143, "Mtb glucose medium": 12.2}
{"structure": "O=C(c1ccco1)N(CC(F)(F)F)C1CCCOC1", "stereo": "stereo not drawn", "Mtb cholesterol medium": 19.39, "Mtb glucose medium": 31.97}
{"structure": "CC(=O)N1CCOC2(CCCN(C(=O)CCN3CCCCC3)C2)C1", "stereo": "stereo not drawn", "Mtb cholesterol medium": -26.27, "Mtb glucose medium": -15.64}
{"structure": "Cc1ccc(N2CCCC(NCc3nnc4n3CCCC4)C2=O)cc1", "stereo": "stereo not drawn", "Mtb cholesterol medium": -0.6828, "Mtb glucose medium": -1.984}
{"structure": "O=C(CNCCn1cccn1)NCC1(c2ccccc2)CCOCC1", "Mtb cholesterol medium": 3.743, "Mtb glucose medium": -4.379}
{"structure": "O=C(c1ccc2c(c1)CCC2)N1CCn2ncnc2C1", "Mtb cholesterol medium": "27.68 and 9.525", "Mtb glucose medium": 32.46}
{"structure": "COc1ccc2c(c1)NC(=O)C2OC(=O)Cc1ccccc1C", "stereo": "stereo not drawn", "Mtb cholesterol medium": -3.163, "Mtb glucose medium": 4.308}
{"structure": "Cc1csc(Nc2cc(C3CN(c4ccncn4)C3)nc(C)n2)n1", "Mtb cholesterol medium": 0.3151, "Mtb glucose medium": 39.97}
{"structure": "CN(Cc1nnc(C2CC2)n1C)C1CCN(CCc2cccs2)C1", "stereo": "stereo not drawn", "Mtb cholesterol medium": 5.754, "Mtb glucose medium": -3.182}
{"structure": "Cc1nc2ccccn2c1CN(Cc1cccnc1)CC1CCCO1", "stereo": "stereo not drawn", "Mtb cholesterol medium": 3.762, "Mtb glucose medium": "1.321 and -6.431"}
{"structure": "CN1CCC(c2cccc(NCc3nccn3C)n2)CC1", "Mtb cholesterol medium": -10.07, "Mtb glucose medium": -2.129}
{"structure": "COc1c(C2CCCN2C(=O)Cc2c(C)noc2C)c(C)nn1C", "stereo": "stereo not drawn", "Mtb cholesterol medium": -5.74, "Mtb glucose medium": -10.14}
{"structure": "O=C(NCCN1CCOCC1)c1cnc(Cc2ccc(F)cc2)s1", "Mtb cholesterol medium": "9.726 and -8.526", "Mtb glucose medium": 19.19}
{"structure": "Cc1nc(COCc2cnc3n2CCN(C)C3C)cs1.O=C(O)C(F)(F)F", "stereo": "stereo not drawn", "Mtb cholesterol medium": -10.33, "Mtb glucose medium": "-9.801 and -3.505"}
{"structure": "NC(=O)CNC(=O)c1ccc(CNCc2ccc(F)cc2F)cc1", "Mtb cholesterol medium": -0.8585, "Mtb glucose medium": 9.431}
{"structure": "Cc1nnc2n1CCN(Cc1nc(-c3ccoc3)no1)C2", "Mtb cholesterol medium": -13.04, "Mtb glucose medium": -25.91}
{"structure": "O=C(O)C(F)(F)F.[H][C@@]12CNC(=O)[C@@H](C)[C@]1([H])CN(Cc1ccsc1)C2", "Mtb cholesterol medium": 5.906, "Mtb glucose medium": 4.512}
{"structure": "O=C(O)C(F)(F)F.O=C(O)C(F)(F)F.[H][C@@]12CCN(CC(=O)N(C)C)[C@@]1([H])CCN2Cc1cc(C)c(C)o1", "Mtb cholesterol medium": 9.201, "Mtb glucose medium": -17.23}
{"structure": "Cc1csc(CCNC(=O)NC(C)Cn2cccn2)n1", "stereo": "stereo not drawn", "Mtb cholesterol medium": -9.095, "Mtb glucose medium": "-38.38 and 1.032"}
{"structure": "CCc1cnc(N)nc1N(C)CCc1cnn(C)c1", "Mtb cholesterol medium": -8.277, "Mtb glucose medium": -13.87}
{"structure": "CCCNC(=O)NC(=O)CN(CC(C)O)c1ccccc1", "stereo": "stereo not drawn", "Mtb cholesterol medium": -11.48, "Mtb glucose medium": -6.447}
{"structure": "COCC[C@]1(O)CCN(CC(=O)NCc2ccccc2C)C[C@H]1C", "Mtb cholesterol medium": 10.99, "Mtb glucose medium": -0.5712}
{"structure": "CCc1ncncc1C(=O)NCCNc1ncnc2sccc12", "Mtb cholesterol medium": 2.262, "Mtb glucose medium": "-4.417 and 12.06"}
{"structure": "O=C(CN1CCOCC1)N1CCC(c2cc(N3CCCC3)ncn2)CC1", "Mtb cholesterol medium": "-26.5 and -9.298", "Mtb glucose medium": -6.747}
{"structure": "CC(C(=O)N1CCC(Cc2ccc(F)cc2)CC1)n1ccnc1", "stereo": "stereo not drawn", "Mtb cholesterol medium": -7.487, "Mtb glucose medium": 14.44}
{"structure": "CCc1nnc2n1CCN(C(=O)c1cc(Br)c[nH]1)C2", "Mtb cholesterol medium": -20.19, "Mtb glucose medium": -0.5425}
{"structure": "CCCn1cc(-c2cc(C(=O)N(C)C)c3ccc(OC)cc3n2)cn1", "Mtb cholesterol medium": 18.6, "Mtb glucose medium": 29.76}
{"structure": "Cc1nnc(N2CCC(CNC(=O)OC(C)(C)C)CC2)c(C#N)c1C", "Mtb cholesterol medium": -25.49, "Mtb glucose medium": 5.568}
{"structure": "CC(C)Oc1cc(N2C[C@@H](C)O[C@@H](C)C2)nc(N)n1", "Mtb cholesterol medium": -1.574, "Mtb glucose medium": -18.52}
{"structure": "CCc1ccccc1OCCN(C)C(=O)CCN1CCCO1", "Mtb cholesterol medium": -7.849, "Mtb glucose medium": "3.214 and -14.27"}
{"structure": "Cc1ccc(CN2CCC(n3cc(C(O)c4ccccc4)nn3)CC2)o1", "stereo": "stereo not drawn", "Mtb cholesterol medium": 18.97, "Mtb glucose medium": "0.9805 and 23.07"}
{"structure": "FC(F)c1nnc2ccc(N3CCC4(CCCCC4)C3)nn12", "Mtb cholesterol medium": 2.969, "Mtb glucose medium": "2.679 and 13.95"}

The first 3 entries again:

CCOC(=O)CN1CC(c2nc(-c3ccsc3)no2)C1.O=C(O)C(=O)O read Mtb cholesterol medium: 0.8921%; Mtb glucose medium: -6.378%.
CCn1c(C)nnc1CN(C)C1CCN(Cc2nnc(C3CC3)o2)C1 (stereo not drawn) read Mtb cholesterol medium: -15.6%; Mtb glucose medium: -12.64% and 0.1359%.
Cc1cnc(C(=O)N2Cc3ccccc3OC3(CCOCC3)C2)cn1 read Mtb cholesterol medium: 17.82%; Mtb glucose medium: 25.45%.